Test results taken from publication PMC8073977, “Structural Basis for the C-Terminal Domain of Mycobacterium tuberculosis Ribosome Maturation Factor RimM to Bind Ribosomal Protein S19” (Biomolecules, 2021).
No constants are given. Whether binding was seen depends on the method and setting. For some of these results: Tags and fused reporters may be left off the sequences shown.

Chains of the proteins cited; added tags and fusions are not shown.
UniProt P9WH45: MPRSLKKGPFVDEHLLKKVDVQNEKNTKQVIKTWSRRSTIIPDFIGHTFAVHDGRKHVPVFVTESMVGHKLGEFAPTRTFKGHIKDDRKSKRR

How the values were obtained:
[1] = molecular target: N-terminal domain of RimM from Mycobacterium tuberculosis (MtbRimMNTD, residues 1-93) (Mycobacterium tuberculosis strain H37Rv) (UniProt P9WH19); test: NMR titration; 1H-15N HSQC at 298 K, 850 MHz; 500 uM 15N-MtbRimMNTD or 290 uM 15N-MtbRimMCTD titrated with unlabeled MtbS19 to equimolar ratio; 20 mM potassium phosphate pH 7.2, 100 mM KCl, 0.02% NaN3; both purified
[2] = molecular target: T1, C-terminal domain of RimM from Mycobacterium tuberculosis (MtbRimMCTD, residues 101-176), wild type (Mycobacterium tuberculosis strain H37Rv) (UniProt P9WH19); test: NMR titration; 1H-15N HSQC at 298 K; mutual equimolar titrations between MtbRimMNTD and MtbRimMCTD, both at 150 uM; 20 mM potassium phosphate pH 7.2, 100 mM KCl, 0.02% NaN3; both purified
T1 sequence: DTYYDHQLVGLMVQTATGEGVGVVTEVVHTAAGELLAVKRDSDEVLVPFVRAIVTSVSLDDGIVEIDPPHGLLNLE

[3] = molecular target: N-terminal domain of RimM from Mycobacterium tuberculosis (MtbRimMNTD, residues 1-93) (Mycobacterium tuberculosis strain H37Rv) (UniProt P9WH19); test: as above
[4] = molecular target: T1, C-terminal domain of RimM from Mycobacterium tuberculosis (MtbRimMCTD, residues 101-176), wild type (Mycobacterium tuberculosis strain H37Rv); test: NMR relaxation (rotational correlation time from R2/R1); 600 uM 15N-MtbRimMCTD, 298 K, 850 MHz, 20 mM potassium phosphate pH 7.2, 100 mM KCl, 0.02% NaN3; molecular weight estimated from tau-c; both purified

Ribosomal protein S19 from Mycobacterium tuberculosis (MtbS19, residues 1-93) (from UniProt P9WH45 1-93)
binding [1]: no binding (tested: 500 μM, equimolar)

N-terminal domain of RimM from Mycobacterium tuberculosis (MtbRimMNTD, residues 1-93) (from UniProt P9WH19 1-93) (domain or fragment)
binding [2]: no binding (tested: 150 μM, equimolar)

B1: C-terminal domain of RimM from Mycobacterium tuberculosis (MtbRimMCTD, residues 101-176), wild type (domain or fragment)
chain: T1 sequence
notes: A starting Met stands before D101 (Nde I site); Surmise: pET-22b with Xho I adds Leu-Glu before the His6 tag; Theoretical Mw of the recombinant protein printed as 9.28 kDa; 15N-labelled in the NMR titrations, unlabelled in SPR; also called WT MtbRimMCTD; not shown: His6, C-terminal, kept
binding [3]: no binding (tested: 150 μM, equimolar) | binding [4]: no binding (tested: 600 μM)
